Numbering of substitutions follows the chain as printed. Names may count otherwise. These are yes or no findings as the source states them, for the method shown. For some assays here: Binding seen in cells or lysates may run through a third protein. Some binding calls cover weakened binding; strength is not graded here. For some assays here: Tags and fused reporters may be left off the sequences shown.
Tests used:
[1] = molecular target: T1, LptB from Shigella flexneri (subunit of sfLptB2FG / sfLptB2FGC) (Shigella flexneri), P0A9V4; test: cryo-EM structure; sfLptB2FGC, LPS-bound, nucleotide-free, in LMNG, ~1 mg/ml; 3.1 Å; both purified; conditions: remark: other sources report otherwise
T1 chain: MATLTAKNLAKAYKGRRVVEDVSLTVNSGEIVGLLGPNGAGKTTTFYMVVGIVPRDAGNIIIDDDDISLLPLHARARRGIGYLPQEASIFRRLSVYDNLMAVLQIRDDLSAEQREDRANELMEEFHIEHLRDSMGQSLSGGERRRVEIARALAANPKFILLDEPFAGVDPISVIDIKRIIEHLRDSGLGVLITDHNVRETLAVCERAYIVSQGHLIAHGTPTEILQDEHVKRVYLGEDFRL

[2] = molecular target: T1, LptB from Shigella flexneri (subunit of …); test: cryo-EM structure; purified sfLptB2FGC incubated with 5 mM AMP-PNP and 2 mM MgCl2 for 1 h at room temperature, in LMNG; both purified; conditions: remark: other sources report otherwise
[3] = molecular target: T1, LptB from Shigella flexneri (subunit of …); test: cryo-EM structure; sfLptB2FG, LPS-bound (LPS co-purified from E. coli), nucleotide-free, in LMNG, ~1 mg/ml; 3.7 Å overall; both purified; conditions: remark: other sources report otherwise
[4] = molecular target: T2, LptB from Shigella flexneri (subunit of sfLptB2FG / sfLptB2FGC) (Shigella flexneri) (UniProt P0A9V4); test: cryo-EM structure; sfLptB2FGC, LPS-bound, nucleotide-free, in LMNG, ~1 mg/ml; 3.1 Å; both purified
T2 sequence: T1 chain

[5] = molecular target: T2, LptB from Shigella flexneri (subunit of sfLptB2FG / sfLptB2FGC) (Shigella flexneri); test: cryo-EM structure; purified sfLptB2FGC incubated with 5 mM AMP-PNP and 2 mM MgCl2 for 1 h at room temperature, in LMNG; both purified
[6] = molecular target: T2, LptB from Shigella flexneri (subunit of sfLptB2FG / sfLptB2FGC) (Shigella flexneri); test: cryo-EM structure; sfLptB2FG, LPS-bound (LPS co-purified from E. coli), nucleotide-free, in LMNG, ~1 mg/ml; 3.7 Å overall; both purified
[7] = molecular target: T3, E. coli LptB with His x8 tag at the C terminus (from pTRC99a-E. coli LptBF138G144C-Kan) (E. coli) (UniProt P0A9V1); test: pull-down; membrane fraction of NR1113 cells with pTRC99a-Kan E. coli LptB(His8)F(Flag)G(Myc)C solubilised in 1% DDM, loaded on Ni2+-NTA, washed with 30 mM imidazole, eluted with 500 mM imidazole; eluate blotted with anti-Flag or anti-Myc; the paper reads the blot as expression level
T3 sequence: T1 chain

[8] = molecular target: T4, LptF from Shigella flexneri (subunit of sfLptB2FG / sfLptB2FGC) (Shigella flexneri) (UniProt P0AFA1); test: cryo-EM structure; sfLptB2FGC, LPS-bound, nucleotide-free, in LMNG, ~1 mg/ml; 3.1 Å; both purified
T4 sequence: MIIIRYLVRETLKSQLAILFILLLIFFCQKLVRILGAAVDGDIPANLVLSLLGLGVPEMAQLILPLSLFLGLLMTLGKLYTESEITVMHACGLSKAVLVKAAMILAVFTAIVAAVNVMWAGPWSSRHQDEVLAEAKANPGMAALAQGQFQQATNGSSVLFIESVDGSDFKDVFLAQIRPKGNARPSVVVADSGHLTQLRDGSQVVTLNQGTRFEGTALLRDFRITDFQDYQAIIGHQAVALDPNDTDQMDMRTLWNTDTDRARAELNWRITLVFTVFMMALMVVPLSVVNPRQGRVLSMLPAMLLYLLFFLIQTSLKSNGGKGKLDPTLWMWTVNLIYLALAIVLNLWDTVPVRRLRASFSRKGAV

B1: LptB from Shigella flexneri (subunit of sfLptB2FG / sfLptB2FGC), P0A9V4 1-241 (protein)
chain: T1 chain
- binding [1]: binds
- binding [2]: binds
- binding [3]: binds

B2: LptF from Shigella flexneri (subunit of sfLptB2FG / sfLptB2FGC) (protein, UniProt P0AFA1 1-366)
chain: T4 sequence
- binding [4]: binds
- binding [5]: binds
- binding [6]: binds

B3: E. coli LptF with a Flag tag at residue 138 (LptF-138-Flag) (protein, UniProt P0AF98 1-366)
chain: T4 sequence
- binding [7]: binds

B4: E. coli LptG with a c-Myc tag at 144 (LptG-144-Myc) (protein, UniProt P0ADC6 1-360)
chain: MQPFGVLDRYIGKTIFTTIMMTLFMLVSLSGIIKFVDQLKKAGQGSYDALGAGMYTLLSVPKDVQIFFPMAALLGALLGLGMLAQRSELVVMQASGFTRMQVALSVMKTAIPLVLLTMAIGEWVAPQGEQMARNYRAQAMYGGSLLSTQQGLWAKDGNNFVYIERVKGDEELGGISIYAFNENRRLQSVRYAATAKFDPEHKVWRLSQVDESDLTNPKQITGSQTVSGTWKTNLTPDKLGVVALDPDALSISGLHNYVKYLKSSGQDAGRYQLNMWSKIFQPLSVAVMMLMALSFIFGPLRSVPMGVRVVTGISFGFVFYVLDQIFGPLTLVYGIPPIIGALLPSASFFLISLWLLMRKS
- binding [7]: binds

B5: E. coli LptF-138-Flag P139D (protein, UniProt P0AF98 1-366)
chain: T4 sequence with P139D
- binding [7]: binds

B6: E. coli LptG-144-Myc K62E (protein, UniProt P0ADC6 1-360)
chain: B4 chain with K62E
- binding [7]: binds

B7: LptC from Shigella flexneri (subunit of sfLptB2FGC) (protein, UniProt P0ADW2 1-191)
chain: MSKARRWVIIVLSLAVLVMIGINMAEKDDTAQVVVNNNDPTYKSEHTDTLVYNPEGALSYRLIAQHVEYYSDQAVSWFTQPVLTTFDKDKIPTWSVKADKAKLTNDRMLYLYGHVEVNALVPDSQLRRITTDNAQINLVTQDVTSEDLVTLYGTTFNSSGLKMRGNLRSKNAELIEKVRTSYEIQNKQTQP
- binding [8]: binds

From PMC6744409
